Measured values: patent US20170189504A1, “NOVEL PEPTIDES AND COMBINATION OF PEPTIDES FOR USE IN IMMUNOTHERAPY AGAINST VARIOUS CANCERS” (immatics biotechnologies GmbH, priority 2015, published 2017)

Key:
HLA-A*02 = assay: Identification and relative LC-MS quantitation of HLA-A*02-presented tumor-associated peptides on tissue samples (presentation profiles, Tables 13A, 13B, 15, FIG. 1); parameters: species or system human; key to Presentation score NHL / Presentation score CLL / Presentation score BRCA / Presentation score AML / Presentation score GB / Presentation score NSCLC / Presentation score GBC_CCC / Presentation score UEC / Presentation score MEL / Presentation score OSCAR / Presentation score GC / Presentation score UBC / Presentation score OC / Presentation score RCC / Presentation score CRC / Presentation score PCA / Presentation score HCC / Presentation score PC / Presentation score SCLC: specifically presented on tumors (++++); very highly over-presented on tumors compared to a panel of normal tissues (+++); highly over-presented on tumors compared to a panel of normal tissues (++); over-presented on tumors compared to a panel of normal tissues (+); details: for Peptide Presentation on cancer entities: HLA-A*02-binding tumor-associated peptides
source genes (mRNA) [1] = assay: Gene and exon expression of source genes, TCGA tumor samples compared with normal tissue samples (Lonsdale, 2013) (Table 17); parameters: species or system human; details: cutoff more than 2-fold above highest 75% percentile of normal tissue samples; for Target coverage: over-expression category of source gene, READ: Colon and rectal adenocarcinoma (N = 167); for Target coverage: over-expression category of source gene, COAD: Colon and rectal adenocarcinoma (N = 462); for Target coverage: over-expression category of source gene, LIHC: Liver hepatocellular carcinoma (N = 374); for Target coverage: over-expression category of source gene, DLBC: Lymphoid neoplasm diffuse large B-cell lymphoma (N = 48)
source genes (mRNA) [2] = assay: Expression profiling of source genes by in-house RNASeq of tumor and normal tissues (Table 18, FIG. 2); parameters: species or system human; key: very highly over-expressed in tumors compared to a panel of normal tissues (+++); highly over-expressed in tumors compared to a panel of normal tissues (++); over-expressed in tumors compared to a panel of normal tissues (+); details: source gene of peptide; for Expression score NHL: non-Hodgkin lymphoma (N = 10) vs panel of normal tissues
[3] = Table 13A, cancer entities on which the peptide was found presented
[4] = Table 13B, presentation on additional cancer entities

Substance: 86: peptide found in OGG1 (gene looked up) (SVDSHFQEV; listed as Homo sapiens) [compound 86]
- Presentation score OSCAR (HLA-A*02; HLA-A*02 peptides, esophageal cancer, including cancer of the gastric-esophageal junction (N = 17) vs panel of normal tissues (N = 262)): ++++
- Presentation score GC (HLA-A*02; HLA-A*02 peptides, gastric cancer (N = 29) vs panel of normal tissues (N = 262)): ++++
- Presentation score OC (HLA-A*02; HLA-A*02 peptides, ovarian cancer (N = 20) vs panel of normal tissues (N = 262)): ++++
- Peptide Presentation on cancer entities (HLA-A*02; [3]): GC, OSCAR, OC
- Peptide Presentation on cancer entities (HLA-A*02; [4]): NSCLC, OC
- Target coverage: over-expression category of source gene, READ (source genes (mRNA) [1]): C (>=5% of tumors above the cutoff, but <20%)
- Target coverage: over-expression category of source gene, COAD (source genes (mRNA) [1]): C (>=5% of tumors above the cutoff, but <20%)
- Target coverage: over-expression category of source gene, GBM (source genes (mRNA) [1]; Glioblastoma multiforme (N = 169)): B (>= 20% of tumors above the cutoff, but <50%)
- Target coverage: over-expression category of source gene, LIHC (source genes (mRNA) [1]): C (>=5% of tumors above the cutoff, but <20%)
- Target coverage: over-expression category of source gene, LGG (source genes (mRNA) [1]; Lower grade glioma (N = 534)): C (>=5% of tumors above the cutoff, but <20%)
- Target coverage: over-expression category of source gene, DLBC (source genes (mRNA) [1]): A (>=50% of tumors above the cutoff)
- Target coverage: over-expression category of source gene, OV (source genes (mRNA) [1]; Ovarian serous cystadenocarcinoma (N = 309)): B (>= 20% of tumors above the cutoff, but <50%)
- Target coverage: over-expression category of source gene, KIRP (source genes (mRNA) [1]; Papillary kidney carcinoma (N = 291)): B (>= 20% of tumors above the cutoff, but <50%)
- Expression score GB (source genes (mRNA) [2]; glioblastoma (N = 24) vs panel of normal tissues): +
- Expression score NHL (source genes (mRNA) [2]): +

Substance: 53: peptide found in PUS1 (gene looked up) (KMVGLVVAI; listed as Homo sapiens) [compound 53]
- Presentation score AML (HLA-A*02; HLA-A*02 peptides, acute myeloid leukemia (N = 18) vs panel of normal tissues (N = 262)): +++
- Presentation score CLL (HLA-A*02; HLA-A*02 peptides, chronic lymphocytic leukemia (N = 17) vs panel of normal tissues (N = 262)): +++
- Presentation score NHL (HLA-A*02; HLA-A*02 peptides, non-Hodgkin lymphoma (N = 18) vs panel of normal tissues (N = 262)): +++
- Peptide Presentation on cancer entities (HLA-A*02; [3]): CLL, AML, NHL
- Peptide Presentation on cancer entities (HLA-A*02; [4]): MEL
- Target coverage: over-expression category of source gene, BLCA (source genes (mRNA) [1]; Bladder urothelial carcinoma (N = 408)): C (>=5% of tumors above the cutoff, but <20%)
- Target coverage: over-expression category of source gene, READ (source genes (mRNA) [1]): B (>= 20% of tumors above the cutoff, but <50%)
- Target coverage: over-expression category of source gene, COAD (source genes (mRNA) [1]): B (>= 20% of tumors above the cutoff, but <50%)
- Target coverage: over-expression category of source gene, LIHC (source genes (mRNA) [1]): C (>=5% of tumors above the cutoff, but <20%)
- Target coverage: over-expression category of source gene, LUSC (source genes (mRNA) [1]; Lung squamous cell carcinoma (N = 503)): C (>=5% of tumors above the cutoff, but <20%)
- Target coverage: over-expression category of source gene, DLBC (source genes (mRNA) [1]): A (>=50% of tumors above the cutoff)
- Target coverage: over-expression category of source gene, UCEC (source genes (mRNA) [1]; Uterine corpus endometrial carcinoma (N = 546)): B (>= 20% of tumors above the cutoff, but <50%)
- Expression score AML (source genes (mRNA) [2]; acute myeloid leukemia (N = 11) vs panel of normal tissues): +
- Expression score OSCAR (source genes (mRNA) [2]; esophageal cancer incl. gastric-esophageal junction (N = 11) vs panel of normal tissues): +
- Expression score NHL (source genes (mRNA) [2]): +
- Expression score OC (source genes (mRNA) [2]; ovarian cancer (N = 12) vs panel of normal tissues): +
- Expression score UBC (source genes (mRNA) [2]; urinary bladder cancer (N = 10) vs panel of normal tissues): +

For some assays here: Expression values are those of the mRNA of the gene that encodes the peptide; a gene is named only where it was looked up.
